Laboratory results published in the supplement of paper PMC8728848.
The other results are listed elsewhere or left out.

What was measured:
Assay in all cases: glycan array binding signal (z-score within array); higher = stronger binding
Conditions in all cases: glycan notation: IUPAC condensed, linker removed
Gal(a1-3)Gal(b1-4)GlcNAc = molecular target: Gal(a1-3)Gal(b1-4)GlcNAc
Procedure, shortened: (§1)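 From the Consortium for Functional Glycomics database, 3228 arrays were curated, keeping only those whose protein sequence was available. Binding is given as a within-array Z-score averaged across arrays sharing a protein sequence and across linkers. Negative Z-scores can be read as non-binding.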

[1] = molecular target: Gal(a1-3)Gal(b1-4)GlcNAc(b1-2)Man
Procedure, shortened: as §1

[2] = molecular target: Gal(a1-3)Gal(b1-4)GlcNAc(b1-2)Man(a1-3)[Gal(a1-3)Gal(b1-4)GlcNAc(b1-2)Man(a1-6)]Man(b1-4)GlcNAc(b1-4)GlcNAc
Procedure, shortened: as §1

[3] = molecular target: Gal(a1-3)Gal(b1-4)GlcNAc(b1-3)GalNAc
Procedure, shortened: as §1

[4] = molecular target: Gal(a1-3)Gal(b1-4)GlcNAc(b1-6)GalNAc
Procedure, shortened: as §1

[5] = molecular target: Gal(a1-3)Gal(b1-4)[Fuc(a1-3)]GlcNAc
Procedure, shortened: as §1

[6] = molecular target: Gal(a1-3)Gal(b1-4)[Fuc(a1-3)]GlcNAc(b1-2)Man(a1-3)[Gal(a1-3)Gal(b1-4)[Fuc(a1-3)]GlcNAc(b1-2)Man(a1-6)]Man(b1-4)GlcNAc(b1-4)GlcNAc
Procedure, shortened: as §1

Gal(a1-3)GalNAc = molecular target: Gal(a1-3)GalNAc
Procedure, shortened: as §1

[7] = molecular target: Gal(a1-3)[Gal(a1-4)]Gal(b1-4)GlcNAc
Procedure, shortened: as §1

[8] = molecular target: Gal(a1-4)Gal(b1-3)GlcNAc(b1-2)Man(a1-3)[Gal(a1-4)Gal(b1-3)GlcNAc(b1-2)Man(a1-6)]Man(b1-4)GlcNAc(b1-4)GlcNAc
Procedure, shortened: as §1

Gal(a1-4)Gal(b1-4)Glc = molecular target: Gal(a1-4)Gal(b1-4)Glc
Procedure, shortened: as §1

Gal(a1-4)Gal(b1-4)GlcNAc = molecular target: Gal(a1-4)Gal(b1-4)GlcNAc
Procedure, shortened: as §1

[9] = molecular target: Gal(a1-4)Gal(b1-4)GlcNAc(b1-2)Man(a1-3)[Gal(a1-4)Gal(b1-4)GlcNAc(b1-2)Man(a1-6)]Man(b1-4)GlcNAc(b1-4)GlcNAc
Procedure, shortened: as §1

[10] = molecular target: Gal(a1-4)Gal(b1-4)GlcNAc(b1-3)Gal(b1-4)Glc
Procedure, shortened: as §1

Gal(a1-4)GlcNAc = molecular target: Gal(a1-4)GlcNAc
Procedure, shortened: as §1

Gal(a1-6)Glc = molecular target: Gal(a1-6)Glc
Procedure, shortened: as §1

Gal(b1-2)Gal = molecular target: Gal(b1-2)Gal
Procedure, shortened: as §1

Gal(b1-3)Gal = molecular target: Gal(b1-3)Gal
Procedure, shortened: as §1

Gal(b1-3)Gal(b1-4)GlcNAc = molecular target: Gal(b1-3)Gal(b1-4)GlcNAc
Procedure, shortened: as §1

Gal(b1-3)GalNAc = molecular target: Gal(b1-3)GalNAc
Procedure, shortened: as §1

[11] = molecular target: Gal(b1-3)GalNAc(a1-3)[Fuc(a1-2)]Gal(b1-4)Glc
Procedure, shortened: as §1

[12] = molecular target: Gal(b1-3)GalNAc(a1-3)[Fuc(a1-2)]Gal(b1-4)GlcNAc
Procedure, shortened: as §1

Gal(b1-3)GalNAc(b1-3)Gal = molecular target: Gal(b1-3)GalNAc(b1-3)Gal
Procedure, shortened: as §1

[13] = molecular target: Gal(b1-3)GalNAc(b1-3)Gal(a1-4)Gal(b1-4)Glc
Procedure, shortened: as §1

[14] = molecular target: Gal(b1-3)GalNAc(b1-4)Gal(b1-4)Glc
Procedure, shortened: as §1

[15] = molecular target: Gal(b1-3)GalNAc(b1-4)[Neu5Ac(a2-3)]Gal(b1-4)Glc
Procedure, shortened: as §1

Gal(b1-3)GlcNAc = molecular target: Gal(b1-3)GlcNAc
Procedure, shortened: as §1

[16] = molecular target: Gal(b1-3)GlcNAc(a1-3)Gal(b1-4)GlcNAc
Procedure, shortened: as §1

[17] = molecular target: Gal(b1-3)GlcNAc(a1-6)Gal(b1-4)GlcNAc
Procedure, shortened: as §1

Gal(b1-3)GlcNAc(b1-2)Man = molecular target: Gal(b1-3)GlcNAc(b1-2)Man
Procedure, shortened: as §1

[18] = molecular target: Gal(b1-3)GlcNAc(b1-2)Man(a1-3)[Gal(b1-3)GlcNAc(b1-2)Man(a1-6)]Man(b1-4)GlcNAc(b1-4)GlcNAc
Procedure, shortened: as §1

[19] = molecular target: Gal(b1-3)GlcNAc(b1-2)Man(a1-3)[Gal(b1-3)GlcNAc(b1-2)Man(a1-6)]Man(b1-4)GlcNAc(b1-4)[Fuc(a1-6)]GlcNAc
Procedure, shortened: as §1

[20] = molecular target: Gal(b1-3)GlcNAc(b1-2)Man(a1-3)[GlcNAc(b1-4)][Gal(b1-3)GlcNAc(b1-2)Man(a1-6)]Man(b1-4)GlcNAc(b1-4)GlcNAc
Procedure, shortened: as §1

[21] = molecular target: Gal(b1-3)GlcNAc(b1-2)[Gal(b1-3)GlcNAc(b1-6)]Man(a1-6)[Gal(b1-3)GlcNAc(b1-2)Man(a1-3)]Man(b1-4)GlcNAc(b1-4)GlcNAc
Procedure, shortened: as §1

[22] = molecular target: Gal(b1-3)GlcNAc(b1-3)Gal(b1-3)GlcNAc
Procedure, shortened: as §1

[23] = molecular target: Gal(b1-3)GlcNAc(b1-3)Gal(b1-4)Glc
Procedure, shortened: as §1

[24] = molecular target: Gal(b1-3)GlcNAc(b1-3)Gal(b1-4)GlcNAc
Procedure, shortened: as §1

B1: Epa20 (Candida glabrata) (protein)
chain: MGSSHHHHHHSSGLVPRGSHMASSNIPNNYPLGCSNKYSGHLPGLKMELYSYNYVNPRHPDPQNPGKLDQLYDPNLLGTYECFDSSYKDINYPRVGYKSKTLIGRSDGVSGILNFNFVPPWGCMPQKGQLPPAYNFKSNITLSNFTMILFGYFKPKISGNHIFSLHGDDLIYLNFGAGNAFDCCRQESSADNFGNYQAFSLWGINWEKKTLTVYLDMNTYYPIRIFYNNRDYQAIFNFSFKTEFDSSPVIDFQDYFFFLRDIDGGCPGEV
For B1, the “glycan array binding signal (z-score)” value (Gal(a1-3)Gal(b1-4)GlcNAc) was -0.07, the “glycan array binding signal (z-score)” value [1] was -0.719 and the “glycan array binding signal (z-score)” value [2] was -0.147. The “glycan array binding signal (z-score)” value [3] was -0.19, the “glycan array binding signal (z-score)” value [4] was -0.344 and the “glycan array binding signal (z-score)” value [5] was -0.728. The “glycan array binding signal (z-score)” value [6] was 1.03, the “glycan array binding signal (z-score)” value (Gal(a1-3)GalNAc) was -0.523 and the “glycan array binding signal (z-score)” value [7] was -0.118. For the same binder, the “glycan array binding signal (z-score)” value [8] was 0.501, the “glycan array binding signal (z-score)” value (Gal(a1-4)Gal(b1-4)Glc) was 0.322 and the “glycan array binding signal (z-score)” value (Gal(a1-4)Gal(b1-4)GlcNAc) was -0.012. For the same binder, the “glycan array binding signal (z-score)” value [9] was 0.056, the “glycan array binding signal (z-score)” value [10] was 0.122 and the “glycan array binding signal (z-score)” value (Gal(a1-4)GlcNAc) was 0.65. For the same binder, the “glycan array binding signal (z-score)” value (Gal(a1-6)Glc) was 0.355, the “glycan array binding signal (z-score)” value (Gal(b1-2)Gal) was -0.763 and the “glycan array binding signal (z-score)” value (Gal(b1-3)Gal) was -0.307. The “glycan array binding signal (z-score)” value (Gal(b1-3)Gal(b1-4)GlcNAc) was 0.325, the “glycan array binding signal (z-score)” value (Gal(b1-3)GalNAc) was -0.365 and the “glycan array binding signal (z-score)” value [11] was -0.089. The “glycan array binding signal (z-score)” value [12] was -0.045, the “glycan array binding signal (z-score)” value (Gal(b1-3)GalNAc(b1-3)Gal) was 0.604 and the “glycan array binding signal (z-score)” value [13] was -0.044. For the same binder, the “glycan array binding signal (z-score)” value [14] was 0.899, the “glycan array binding signal (z-score)” value [15] was 0.64 and the “glycan array binding signal (z-score)” value (Gal(b1-3)GlcNAc) was -0.446. For the same binder, the “glycan array binding signal (z-score)” value [16] was -0.351, the “glycan array binding signal (z-score)” value [17] was -0.498 and the “glycan array binding signal (z-score)” value (Gal(b1-3)GlcNAc(b1-2)Man) was 0.049. The “glycan array binding signal (z-score)” value [18] was 0.704, the “glycan array binding signal (z-score)” value [19] was 1.2 and the “glycan array binding signal (z-score)” value [20] was -0.184. The “glycan array binding signal (z-score)” value [21] was -0.523, the “glycan array binding signal (z-score)” value [22] was -0.177 and the “glycan array binding signal (z-score)” value [23] was -0.669. The “glycan array binding signal (z-score)” value [24] was -0.396.
